Experimental data as given in article PMC4729872.
No constants are given. Whether binding was seen depends on the method and setting. In cells and extracts the contact can be indirect. Some results given as binding are weak or reduced against the parent protein; the word gives no strength.

Target: T1, Pleckstrin homology (PH) domain leucine-rich repeat protein phosphatase 2 (PHLPP2) (mouse (endogenous in primary hepatocytes)) (UniProt Q8BXA7)
T1 sequence: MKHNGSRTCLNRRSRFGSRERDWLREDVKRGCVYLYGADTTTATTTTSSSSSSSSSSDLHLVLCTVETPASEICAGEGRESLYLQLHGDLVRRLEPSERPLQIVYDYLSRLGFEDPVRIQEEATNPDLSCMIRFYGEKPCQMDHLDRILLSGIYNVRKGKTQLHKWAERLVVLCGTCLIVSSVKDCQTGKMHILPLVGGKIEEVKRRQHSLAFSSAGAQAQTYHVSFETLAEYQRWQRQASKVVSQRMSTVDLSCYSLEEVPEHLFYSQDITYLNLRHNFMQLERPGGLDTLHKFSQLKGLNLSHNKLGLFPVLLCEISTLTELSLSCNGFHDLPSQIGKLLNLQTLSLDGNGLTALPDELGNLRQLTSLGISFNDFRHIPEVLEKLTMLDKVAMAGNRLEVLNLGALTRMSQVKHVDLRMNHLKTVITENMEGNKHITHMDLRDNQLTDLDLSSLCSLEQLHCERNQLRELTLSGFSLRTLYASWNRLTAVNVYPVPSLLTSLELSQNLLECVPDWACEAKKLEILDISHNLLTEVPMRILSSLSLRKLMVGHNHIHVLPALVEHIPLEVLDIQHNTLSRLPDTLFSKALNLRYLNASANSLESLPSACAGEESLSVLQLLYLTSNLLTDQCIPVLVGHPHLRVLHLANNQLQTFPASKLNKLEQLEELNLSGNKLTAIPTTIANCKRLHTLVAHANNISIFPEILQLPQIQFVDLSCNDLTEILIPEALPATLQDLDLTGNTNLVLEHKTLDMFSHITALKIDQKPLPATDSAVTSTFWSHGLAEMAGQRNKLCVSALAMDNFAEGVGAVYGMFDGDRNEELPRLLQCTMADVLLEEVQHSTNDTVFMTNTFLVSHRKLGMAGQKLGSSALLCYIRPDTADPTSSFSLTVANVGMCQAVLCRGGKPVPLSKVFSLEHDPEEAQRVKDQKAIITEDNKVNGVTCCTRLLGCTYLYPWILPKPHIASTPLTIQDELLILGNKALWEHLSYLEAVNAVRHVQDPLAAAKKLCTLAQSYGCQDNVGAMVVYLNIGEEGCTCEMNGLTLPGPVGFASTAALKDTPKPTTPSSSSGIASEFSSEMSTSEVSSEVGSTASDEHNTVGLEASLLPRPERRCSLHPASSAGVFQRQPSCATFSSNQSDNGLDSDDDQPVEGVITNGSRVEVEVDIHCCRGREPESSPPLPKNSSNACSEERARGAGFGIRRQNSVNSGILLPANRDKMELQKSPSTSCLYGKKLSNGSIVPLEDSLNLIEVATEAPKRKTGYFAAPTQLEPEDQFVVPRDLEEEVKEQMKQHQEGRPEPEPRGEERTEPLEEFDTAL
Assay: co-IP; anti-PHLPP2 immunoprecipitation from primary hepatocytes and hepatoma cells transduced with Raptor or GFP adenovirus, with or without MG-132

B1: β-TrCP (beta-transducin repeat-containing protein) (protein, UniProt Q3ULA2 1-605)
chain: MDPAEAVLQEKALKFMCSMPRSLWLGCSSLADSMPSLRCLYNPGTGALTAFQNSSEREDCNNGEPPRKIIPEKNSLRQTYNSCARLCINQETVCLTSTAMKTENCVAKAKLANGTSSMIVPKQRKLSASYEKEKELCVKYFEQWSESDQVEFVEHLISQMCHYQHGHINSYLKPMLQRDFITALPARGLDHIAENILSYLDAKSLCAAELVCKEWYRVTSDGMLWKKLIERMVRTDSLWRGLAERRGWGQYLFKNKPPDENAPPNSFYRALYPKIIQDIETIESNWRCGRHSLQRIHCRSETSKGVYCLQYDDQKIVSGLRDNTIKIWDKSTLECKRILTGHTGSVLCLQYDERVIITGSSDSTVRVWDVNAGEMLNTLIHHCEAVLHLRFNNGMMVTCSKDRSIAVWDMASPTDITLRRVLVGHRAAVNVVDFDDKYIVSASGDRTIKVWNTSTCEFVRTLNGHKRGIACLQYRDRLVVSGSSDNTIRLWDIECGACLRVLEGHEELVRCIRFDNKRIVSGAYDGKIKVWDLMAALDPRAPAGTLCLRTLVEHSGRVFRLQFDEFQIVSSSHDDTILIWDFLNDPAAHAEPPRSPSRTYTYISR
binding: binds
